Assay results published in paper PMC2671458.
No constants are given. Whether binding was seen depends on the method and setting. Binding seen in cells or lysates may run through a third protein. Some results given as binding are weak or reduced against the parent protein; the word gives no strength.

T1: P-selectin glycoprotein ligand 1 (human (endogenous in primary neutrophils)) (UniProt Q14242)
T1 sequence: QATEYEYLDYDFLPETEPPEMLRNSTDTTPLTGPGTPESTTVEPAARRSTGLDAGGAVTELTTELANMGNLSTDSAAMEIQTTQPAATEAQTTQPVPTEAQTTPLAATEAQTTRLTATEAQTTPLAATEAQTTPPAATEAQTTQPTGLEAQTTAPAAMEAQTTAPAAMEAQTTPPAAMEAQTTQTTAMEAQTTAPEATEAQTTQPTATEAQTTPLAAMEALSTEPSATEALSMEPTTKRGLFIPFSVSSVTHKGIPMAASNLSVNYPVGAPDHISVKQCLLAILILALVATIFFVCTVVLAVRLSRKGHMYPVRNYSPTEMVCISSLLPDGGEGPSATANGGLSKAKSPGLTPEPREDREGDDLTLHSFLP

T2: flotillin-2 (human (endogenous in primary neutrophils)) (UniProt Q14254)
T2 sequence: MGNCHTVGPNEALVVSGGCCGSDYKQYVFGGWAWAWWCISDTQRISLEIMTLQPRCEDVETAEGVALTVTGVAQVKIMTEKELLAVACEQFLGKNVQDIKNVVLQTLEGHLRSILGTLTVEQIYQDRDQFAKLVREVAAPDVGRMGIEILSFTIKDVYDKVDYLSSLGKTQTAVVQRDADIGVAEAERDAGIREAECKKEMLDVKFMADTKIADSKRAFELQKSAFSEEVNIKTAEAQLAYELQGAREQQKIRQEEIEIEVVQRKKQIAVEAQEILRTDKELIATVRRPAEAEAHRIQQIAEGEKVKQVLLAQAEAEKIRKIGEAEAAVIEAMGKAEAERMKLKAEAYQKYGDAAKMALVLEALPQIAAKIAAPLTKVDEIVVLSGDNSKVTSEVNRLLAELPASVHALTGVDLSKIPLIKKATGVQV

B1: flotillin-1 (protein, UniProt O75955-1 1-427)
chain: MFFTCGPNEAMVVSGFCRSPPVMVAGGRVFVLPCIQQIQRISLNTLTLNVKSEKVYTRHGVPISVTGIAQVKIQGQNKEMLAAACQMFLGKTEAEIAHIALETLEGHQRAIMAHMTVEEIYKDRQKFSEQVFKVASSDLVNMGISVVSYTLKDIHDDQDYLHSLGKARTAQVQKDARIGEAEAKRDAGIREAKAKQEKVSAQYLSEIEMAKAQRDYELKKAAYDIEVNTRRAQADLAYQLQVAKTKQQIEEQRVQVQVVERAQQVAVQEQEIARREKELEARVRKPAEAERYKLERLAEAEKSQLIMQAEAEAASVRMRGEAEAFAIGARARAEAEQMAKKAEAFQLYQEAAQLDMLLEKLPQVAEEISGPLTSANKITLVSSGSGTMGAAKVTGEVLDILTRLPESVERLTGVSISQVNHKPLRTA
B2: flotillin-2 (protein, UniProt Q14254 1-428)
chain: T2 sequence

What was measured:
[1] = target: T1, P-selectin glycoprotein ligand 1 (human (endogenous in primary neutrophils)); test: co-IP; data not shown (n = 2): IP of primary human neutrophil lysates with murine anti-PSGL-1 antibody; blot probed with a murine anti-flotillin-1 antibody
[2] = target: T2, flotillin-2 (human (endogenous in primary neutrophils)); test: co-IP; lysates of primary human neutrophils, resting or stimulated with 1 nM fNLPNTL for 5 min; lysis buffer 0.5% NP-40, 50 mM NaCl, 50 mM Tris, pH 8; IP with rabbit anti-flotillin-2 antibody and protein A or G beads; blot probed for flotillin-1 and flotillin-2
[3] = target: T1, P-selectin glycoprotein ligand 1 (human (endogenous in primary neutrophils)); test: co-IP; lysates of primary human neutrophils, resting or stimulated with 1 nM fNLPNTL for 10 min; lysis buffer 0.5% NP-40, 50 mM NaCl, 50 mM Tris, pH 8; IP with murine anti-PSGL-1 antibody or control murine IgG; blot probed for PSGL-1 and flotillin-2

Row | Binder | binding [1] | binding [2] | binding [3]
1 | B1 | binds | binds | 
2 | B2 |  |  | binds
